Experimental data published in the supplement of paper PMC6078165.

Test system: BT20
Assay: relative JC-1 red fluorescence (viability) vs pre-drug, coculture with fibroblast (fraction); higher = more viable cancer cells
Details: 100 µM
Method: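 JC-1 labelled TNBC cells cocultured 1:1 (1,500 cells each) with CellTrace Violet stained primary or stromal fibroblasts in 384-well plates in FluoroBrite medium, treated with one of 42 anticancer drugs at 0.1, 1, 10 or 100 uM. JC-1 red fluorescence (mitochondrial integrity in cancer cells only) was read by plate reader every 8 h for 72 h. Values are normalised to each well's pre-drug value. The stock of one drug was tenfold lower, so its dose labels may be too high.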

CC(C)(C#N)c1cc(Cn2cncn2)cc(C(C)(C)C#N)c1 [Anastrozole]
relative JC-1 red fluorescence
Details | 8 h | 16 h | 24 h | 32 h | 40 h | 48 h | 56 h | 64 h | 72 h
coculture fibroblast: C12385 | 0.8727 | 0.798 | 0.745 | 0.693 | 0.6449 | 0.6161 | 0.59372 | 0.5633 | 0.54388
coculture fibroblast: H6013 | 0.95426 | 0.9239 | 0.898 | 0.87 | 0.825 | 0.81 | 0.803 | 0.783 | 0.763
coculture fibroblast: H6019 | 0.8517 | 0.787 | 0.771 | 0.721 | 0.6811 | 0.68 | 0.6543 | 0.6396 | 0.6261
coculture fibroblast: H6076 | 0.827 | 0.914 | 0.848 | 0.821 | 0.792 | 0.767 | 0.743 | 0.74 | 0.712
coculture fibroblast: H6231 | 0.906 | 0.913 | 0.821 | 0.7501 | 0.7117 | 0.661 | 0.62278 | 0.6125 | 0.5755
coculture fibroblast: HADF | 0.849 | 0.915 | 0.8784 | 0.8467 | 0.808 | 0.775 | 0.737 | 0.718 | 0.68
coculture fibroblast: HCFa | 0.931 | 0.85092 | 0.8249 | 0.7785 | 0.7333 | 0.7021 | 0.6743 | 0.6544 | 0.61724
coculture fibroblast: HCPF | 0.788 | 0.95079 | 0.863 | 0.824 | 0.797 | 0.745 | 0.702 | 0.679 | 0.637
coculture fibroblast: HHSteC | 0.9418 | 0.934 | 0.956 | 0.918 | 0.915 | 0.912 | 0.913 | 0.893 | 0.879
coculture fibroblast: HMF | 0.9868 | 0.8493 | 0.773 | 0.7119 | 0.68 | 0.646 | 0.615 | 0.5908 | 0.5499
coculture fibroblast: HPFa | 0.913 | 0.8166 | 0.8145 | 0.73739 | 0.7066 | 0.668 | 0.637 | 0.597 | 0.54
coculture fibroblast: HUF | 0.907 | 0.808 | 0.758 | 0.68 | 0.635 | 0.6 | 0.575 | 0.553 | 0.532
coculture fibroblast: Hs5 | 0.9751 | 0.8917 | 0.845 | 0.7976 | 0.7652 | 0.7329 | 0.7055 | 0.683 | 0.654
coculture fibroblast: Hs27A | 0.816 | 0.9106 | 0.9759 | 0.988 | 0.951 | 0.938 | 0.924 | 0.897 | 0.8427
coculture fibroblast: Hs343T | 0.865 | 0.897 | 0.815 | 0.754 | 0.711 | 0.66 | 0.601 | 0.573 | 0.536
coculture fibroblast: WS1 | 0.8605 | 0.8001 | 0.7931 | 0.7351 | 0.6844 | 0.6621 | 0.6324 | 0.601 | 0.585

Values are relative to the signal before dosing, not to a vehicle control; the signal also falls without drug.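 Labels refer to human fibroblasts, largely primary: uterine (C12385, HUF), lung (H6013), bone (Hs27A), adrenal (HADF), skin (WS1), plus mammary HMF and breast cancer-associated Hs343T. Cancer lines are basal-like or mesenchymal-like triple-negative breast cancer. The paper counts as hits responses shifting over 3x the replicate standard deviation. The tissue of the other fibroblasts is not given here.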
